PubChem BioAssay AID1224827 – NIAID – 2016
Test: 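Identify regulators of the macrophage TNF-alpha response to bacterial LPS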 (follow-up of hits). Cells: RAW264.7 G9 mouse macrophage reporter clone. Knock-down reagent: single siRNA against mouse genes, 100 nM siRNA. Time to read-out: siRNA for 2 days, then LPS about 16 h. Challenge: bacterial lipopolysaccharide (LPS), 10 ng/ml, cells fixed after overnight (about 16 h) stimulation. Detection: 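TNF promoter reporter red fluorescence in nuclei, background subtracted, normalised per plate and to non-targeting control siRNA, as z-scores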. Reading the numbers: TNF reporter z-score, mean and TNF reporter z-score: higher = stronger Tnf promoter reporter signal; gene median z, three same-vendor siRNAs: higher = stronger Tnf reporter signal for the gene. Active means: 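Active siRNA: replicate-mean z-score of 2 or more, or -2 or less; no calls for control wells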.
Here is an unselected part of about 3,800 deposited reagents. Over the whole deposit, about 2,200 (57%) are marked active. 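Active means a strong reporter change in either direction; calls are per siRNA, not per gene; qiagen siRNAs gave weaker effects.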 Unmarked entries are inactive. Reagents against one gene are numbered here.

target gene	siRNA no.	TNF reporter z-score, mean	gene median z, three same-vendor siRNAs	TNF reporter z-score, repeat 1	TNF reporter z-score, repeat 2
Lhfpl4	1	-2.25 (active)	-3.72	-2.4	-2.11
Lhfpl4	2	-3.94 (active)	-3.72	-4.43	-3.44
Lhfpl4	3	-4.52 (active)	-3.72	-3.99	-5.05
Lhfpl4	4	3.08 (active)	1.08	4.51	1.65
Lhfpl4	5	2.48 (active)	1.08	4.45	0.509
Lhfpl4	6	-0.952	1.08	0.213	-2.12
Krt71	1	-4.95 (active)	-6.18	-5.65	-4.24
Krt71	2	-6.18 (active)	-6.18	-6.32	-6.04
Krt71	3	-7.23 (active)	-6.18	-6.56	-7.9
Krt71	4	0.801	-0.435	2.36	-0.758
Krt71	5	0.0447	-0.435	-0.112	0.202
Krt71	6	-2.2 (active)	-0.435	-3.2	-1.19
Snrnp40	1	-2.22 (active)	-3.83	-2.03	-2.41
Snrnp40	2	-4.22 (active)	-3.83	-3.55	-4.89
Snrnp40	3	-4.58 (active)	-3.83	-4.1	-5.05
Snrnp40	4	4.09 (active)	0.848	7.1	1.09
Snrnp40	5	3.38 (active)	0.848	6.15	0.607
Snrnp40	6	-4.5 (active)	0.848	-6.49	-2.51
Gclm	1	6.55 (active)	-1.4	4.25	8.86
Gclm	2	-1.72	-1.4	-1.42	-2.03
Gclm	3	-2.31 (active)	-1.4	-3.25	-1.38
Gclm	4	-1.91	-3.36	-0.712	-3.1
Gclm	5	-2.76 (active)	-3.36	-3.62	-1.89
Gclm	6	-4.58 (active)	-3.36	-5.33	-3.83
Zdhhc9	1	-2.21 (active)	-4.27	-2.47	-1.94
Zdhhc9	2	-4.38 (active)	-4.27	-4.84	-3.92
Zdhhc9	3	-4.67 (active)	-4.27	-4.72	-4.61
Zdhhc9	4	4.03 (active)	2.21	7.11	0.952
Zdhhc9	5	2.02 (active)	2.21	3.89	0.148
Zdhhc9	6	1.33	2.21	3.46	-0.796
Rps6kc1	1	-0.501	-1.19	-0.865	-0.137
Rps6kc1	2	-0.756	-1.19	-1.52	0.00755
Rps6kc1	3	-3.29 (active)	-1.19	-3.26	-3.32
Rps6kc1	4	3.89 (active)	2.31	6.61	1.18
Rps6kc1	5	1.27	2.31	3.44	-0.895
Rps6kc1	6	1.41	2.31	4.24	-1.42
Ogt	1	-2.16 (active)	-3.61	-3.62	-0.693
Ogt	2	-3.57 (active)	-3.61	-3.51	-3.62
Ogt	3	-3.8 (active)	-3.61	-3.6	-4
Ogt	4	0.307	-0.221	1.22	-0.605
Ogt	5	-0.164	-0.221	1.35	-1.67
Ogt	6	-0.475	-0.221	0.163	-1.11
